The text below walks through data of patent US20200216493A1 (FERRING B.V., priority 2016, published 2020).

The data set in a line: general procedure: Fmoc solid-phase peptide synthesis; HBTU/TEA; DIC/HOBt; HBTU/N-methylmorpholine. As to conditions: whole synthesis; for isolated yield: scale of the general procedure 1-3 mmol, 0.1-0.3 mmol, 0.2 mmol.
Where [1] appears, read: overall yield from starting resin, TFA salt.

Turning to “H-D-Me2Nal-Ile-Ser-D-Gln-D-aIle-Ile-Ser-c(D-Thr-Ala-Har-Ile)”, for the setting “Di-TFA salt”, the isolated mass is listed as 108 mg. For the setting “from starting resin, TFA salt”, the isolated yield amounted to 35%.

Take “H-D-MePhe(4-Cl)-Ile-Ser-D-Gln-D-aIle-Ile-Ser-c(D-Thr-Ala-Har-Ile)”: the isolated mass (Di-TFA salt) was 143 mg. For the same substance, where the note is “from starting resin, TFA salt”, the isolated yield amounted to 31%.

In the case of “H-D-MePhe-Ile-Ser-D-Gln-D-aIle-Ile-Ser-c(D-Thr-Ala-Glu(NH(CH2)2NMe2)-Ile)”, the isolated mass is on record as 11.7 mg (Di-TFA salt) and 88 mg (scale 0.32 mmol, TFA salt). Under setting [1], the isolated yield is 2%.

“H-D-MePhe-Ile-Ser-D-Gln-D-aIle-Ile-Ser-c(D-Thr-Ala-Har-Ile)”: the isolated mass by setting is: (Di-TFA salt) 38 mg; (scale 0.5 mmol, TFA salt) 161 mg. Moreover, under setting [1], the isolated yield is 10%.

In the case of “H-D-MePhe-Ile-Ser-D-Gln-D-aIle-Ile-Ser-c(D-Thr-Ala-Lys(Bn)-Ile)”, the isolated mass (Di-TFA salt) is 29 mg. In addition, the isolated yield (from starting resin, TFA salt) turned out to be 11%.

Take “H-D-MePhe-Ile-Ser-D-Lys-D-aIle-Ile-Ser-c(D-Thr-Ala-Lys-Ile)”: under setting [1], the isolated yield was determined as 3%. For the same substance, the isolated mass is 26.1 mg (scale 0.2 mmol, TFA salt) and 9.7 mg (tri-TFA salt).

Turning to “H-D-MePhe-Ile-lNal-D-Gln-D-aIle-Ile-Ser-c(D-Thr-Ala-Har-Ile)”, the isolated mass (Di-TFA salt) came to 20 mg. In addition, the isolated yield (from starting resin, TFA salt) was found to be 7%.

In the case of “H-D-MeTyr(Me)-Ile-Ser-D-Gln-D-aIle-Ile-Ser-c(D-Thr-Ala-Har-Ile)”, the isolated mass (Di-TFA salt) was found to be 54 mg. Further, the isolated yield (from starting resin, TFA salt) is reported as 18%.

On to “H-D-Phe(4-Cl)-Ile-Ser-D-Gln-D-aIle-Ile-Ser-c(D-Thr-Ala-Lys-Ile)”, for which the isolated mass was 12.2 mg (Di-TFA salt) and 44.4 mg (TFA salt). Also, the isolated yield (overall yield from starting resin, Di-TFA salt) worked out at 4%.
